The results in this text go back to article PMC10259508.

Results are given in words; binding and its absence hold for the method and conditions named. In cells and extracts the contact can be indirect. Some binding calls cover weakened binding; strength is not graded here. Where a sequence is shown, tags or fusion partners need not be part of it.

Test [1] deals with T1, Forkhead box M1 (FOXM1), FLAG-tagged (UniProt Q08050).
T1 sequence: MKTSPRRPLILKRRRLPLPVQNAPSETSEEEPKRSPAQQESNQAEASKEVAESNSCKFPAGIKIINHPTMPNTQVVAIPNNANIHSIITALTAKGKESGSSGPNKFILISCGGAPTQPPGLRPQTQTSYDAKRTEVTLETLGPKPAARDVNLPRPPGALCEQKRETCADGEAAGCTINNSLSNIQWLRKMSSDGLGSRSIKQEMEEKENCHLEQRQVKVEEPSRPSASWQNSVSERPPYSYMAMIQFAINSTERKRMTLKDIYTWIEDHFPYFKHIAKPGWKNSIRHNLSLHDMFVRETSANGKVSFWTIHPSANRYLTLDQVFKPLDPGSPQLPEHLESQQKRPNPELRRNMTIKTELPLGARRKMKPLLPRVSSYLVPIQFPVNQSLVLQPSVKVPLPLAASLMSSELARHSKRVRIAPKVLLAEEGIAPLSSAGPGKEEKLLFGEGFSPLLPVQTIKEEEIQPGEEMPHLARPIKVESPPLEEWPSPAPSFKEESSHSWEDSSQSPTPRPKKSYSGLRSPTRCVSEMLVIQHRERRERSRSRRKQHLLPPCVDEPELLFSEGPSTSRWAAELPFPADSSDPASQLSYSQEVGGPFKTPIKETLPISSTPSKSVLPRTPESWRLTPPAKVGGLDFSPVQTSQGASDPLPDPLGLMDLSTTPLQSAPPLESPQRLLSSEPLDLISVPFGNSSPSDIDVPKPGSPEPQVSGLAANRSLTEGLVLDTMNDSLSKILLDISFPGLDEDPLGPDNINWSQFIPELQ
Description: co-IP; HEK293T cells transfected with the tagged constructs, 10 uM MG132 for 8 hours before harvest; lysis in EBC buffer (50 mM Tris pH 7.5, 120 mM NaCl, 0.5% NP-40); anti-HA or anti-FLAG agarose beads, 3 hours at 4 °C; washed with NETN buffer; immunoblot; some panels with DMSO or RCM-1 (10 uM) and LMB (25 nM) for 24 hours.

Test [2] concerns the target T2, DNA binding domain of FOXM1 (235-347 aa) (UniProt Q08050).
T2 sequence: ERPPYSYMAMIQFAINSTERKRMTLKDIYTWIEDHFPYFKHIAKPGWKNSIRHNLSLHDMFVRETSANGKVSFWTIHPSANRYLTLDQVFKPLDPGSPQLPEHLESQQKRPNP
Described as above.

For test [3], the target named is T3, FOXM1 bait of the GST pull-down (UniProt Q08050).
T3 sequence: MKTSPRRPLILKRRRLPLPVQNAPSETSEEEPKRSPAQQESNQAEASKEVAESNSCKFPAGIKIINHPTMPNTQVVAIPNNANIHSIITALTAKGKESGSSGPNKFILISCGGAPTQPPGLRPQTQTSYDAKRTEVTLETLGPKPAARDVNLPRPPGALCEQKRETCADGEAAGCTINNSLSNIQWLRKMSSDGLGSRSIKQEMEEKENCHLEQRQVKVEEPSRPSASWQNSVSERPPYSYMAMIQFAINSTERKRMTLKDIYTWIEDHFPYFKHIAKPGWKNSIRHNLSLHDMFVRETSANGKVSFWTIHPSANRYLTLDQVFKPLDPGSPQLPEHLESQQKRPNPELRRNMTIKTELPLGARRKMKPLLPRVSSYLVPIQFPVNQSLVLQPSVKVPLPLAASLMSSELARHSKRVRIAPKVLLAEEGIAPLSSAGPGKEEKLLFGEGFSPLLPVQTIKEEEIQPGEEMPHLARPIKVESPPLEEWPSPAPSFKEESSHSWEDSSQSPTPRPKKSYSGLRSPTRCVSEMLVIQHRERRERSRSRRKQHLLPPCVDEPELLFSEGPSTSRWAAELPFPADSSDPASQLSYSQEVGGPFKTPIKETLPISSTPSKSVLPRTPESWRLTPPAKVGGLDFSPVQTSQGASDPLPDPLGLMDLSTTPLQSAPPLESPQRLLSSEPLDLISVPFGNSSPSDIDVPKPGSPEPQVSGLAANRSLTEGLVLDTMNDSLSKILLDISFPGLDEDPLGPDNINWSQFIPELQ
Description: pull-down; GST pull-down from lysate of HEK293T cells transfected with RNF112-HA plasmid; immunoblot of whole-cell lysates and pull-down products.

B1: RING finger protein 112 (RNF112), HA-tagged (enzyme, UniProt Q9ULX5 1-631)
chain: MPRPALSVTSFCHRLGKRERKQSFMGNSGNSWSHTPFPKLELGLGPQPMAPRELPTCSICLERLRDPISLDCGHDFCIRCFSTHRLPGCEPPCCPECRKICKQKRGLRSLGEKMKLLPQRPLPPALQETCPVRAEPLLLVRINASGGLILRMGAINRCLKHPLARDTPVCLLAVLGEQHSGKSFLLNHLLQGLPGLESGEGGRPRGGEASLQGCRWGANGLARGIWMWSHPFLLGKEGKKVAVFLVDTGDAMSPELSRETRIKLCALTTMLSSYQILSTSQELKDTDLDYLEMFVHVAEVMGKHYGMVPIQHLDLLVRDSSHPNKAGQGHVGNIFQRLSGRYPKVQELLQGKRARCCLLPAPGRRRMNQGHASPGDTDDDFRHLLGAYVSDVLSAAPQHAKSRCQGYWNEGRAVARGDRRLLTGQQLAQEIKNLSGWMGRTGPGFTSPDEMAAQLHDLRKVEAAKREFEEYVRQQDVATKRIFSALRVLPDTMRNLLSTQKDAILARHGVALLCKGRDQTLEALEAELQATAKAFMDSYTMRFCGHLAAVGGAVGAGLMGLAGGVVGAGMAAAALAAEAGMVAAGAAVGATGAAVVGGGVGAGLAATVGCMEKEEDERLLEGDREPLLQEE
For the molecule B1, the binding result in test [1], in test [2] and in test [3] was “binds” each time.

B2: N-terminus of RNF112 (1-147 aa) (domain or fragment, UniProt Q9ULX5 1-147)
chain: MPRPALSVTSFCHRLGKRERKQSFMGNSGNSWSHTPFPKLELGLGPQPMAPRELPTCSICLERLRDPISLDCGHDFCIRCFSTHRLPGCEPPCCPECRKICKQKRGLRSLGEKMKLLPQRPLPPALQETCPVRAEPLLLVRINASGG
As for B2, the binding result in test [1] is “binds”.
